Source: PubChem BioAssay AID652243 (Drosophila RNAi Screening Center, 2013)
Aim: 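Knock-downs that decrease or increase androgen receptor reporter signal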 (primary screen). Cell system: Drosophila S2R+ cells. Reagent: long dsRNA against Drosophila genes. Duration: 72 h (48 h, then 24 h hormone). Conditions: synthetic androgen R1881 at 10 nM for 24 h. Measured: 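Per-well raw luminescence of the androgen-driven firefly reporter and of the Renilla control, two replicates each, without normalisation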. Direction: firefly reporter light: higher = more light from androgen-responsive reporter; Renilla control light: higher = more constitutive control signal (cell number, transfection). Call rule: 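Across duplicate plates, a knock-down whose log firefly/Renilla ratio shifted a set fold down or up from the GFP/LacZ control mean was a hit; the downward cut appears as both 1.5 and 3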. Calls: active = hit: reporter lowered or raised; inactive = no hit.
In all, the deposit lists about 24,000 reagents; below is a random part of those with a known target gene and a result. Of all reagents, 246 (1%) were called active. 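Plates not normalised; calls are printed but the firefly/Renilla ratio behind them is not deposited; fold cut for lowering reported inconsistently.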 Raw values vary from plate to plate and are shown uncorrected. Names joined by + are all predicted targets of the reagent. Not given: the amount of reagent.

no.	target	dsRNA	firefly reporter light, replicate 1	firefly reporter light, replicate 2	Renilla control light, replicate 1	Renilla control light, replicate 2	Outcome
1	tsl	DRSC17090	2.71e5	3.06e5	2.94e6	3.20e6	inactive
2	cass	DRSC01850	1.06e6	1.60e6	8.95e5	1.49e6	inactive
3	cass	DRSC29928	3.54e5	4.18e5	8.04e5	9.72e5	inactive
4	Act42A	DRSC04835	3.10e5	2.28e5	1.33e6	1.07e6	inactive
5	Act42A	DRSC25061	1.35e6	1.26e6	8.23e5	1.06e6	inactive
6	CG17029	DRSC10240	1.84e5	2.01e5	2.58e6	2.49e6	inactive
7	CG17029	DRSC29418	4.19e5	4.50e5	1.25e6	1.25e6	inactive
8	oaf	DRSC00831	89941	72417	8.20e5	8.36e5	inactive
9	CG33641	DRSC37845	6.67e5	8.79e5	1.89e6	1.97e6	inactive
10	CG33475	DRSC22943	4.15e5	8.90e5	2.97e5	3.82e5	inactive
11	Snx3	DRSC16027	1.33e5	1.12e5	2.50e6	2.31e6	inactive
12	Snx3	DRSC28751	3.42e5	5.35e5	1.02e6	1.60e6	inactive
13	CG34148 + P5CDh2	DRSC13519	1.46e5	1.32e5	95163	1.09e5	inactive
14	RhoGAP54D	DRSC06990	46343	60591	1.01e6	1.01e6	inactive
15	RhoGAP54D	DRSC26684	2.65e5	2.16e5	6.27e5	6.08e5	inactive
16	CG33985	DRSC37800	3.89e5	7.14e5	9.61e5	1.88e6	inactive
17	PpN58A	DRSC04642	1.63e6	1.52e6	2.21e6	2.04e6	inactive
18	PpN58A	DRSC28243	6.03e5	9.29e5	1.09e6	1.72e6	inactive
19	CG9312	DRSC16471	1.17e5	77689	8.43e5	7.56e5	inactive
20	CG17744	DRSC10286	2.64e5	1.91e5	3.19e6	2.35e6	inactive
21	Taf10b	DRSC26605	2.00e5	1.94e5	3.52e5	3.72e5	inactive
22	Pfdn1	DRSC02325	1.56e5	1.57e5	2.16e6	1.42e6	inactive
23	Pfdn1	DRSC26624	3.46e5	3.44e5	7.68e5	6.03e5	inactive
24	CG5149	DRSC02819	9.97e5	9.60e5	1.35e6	1.47e6	inactive
25	CG5149	DRSC27178	2.97e5	3.00e5	6.54e5	7.07e5	inactive
26	CG5555	DRSC15834	73272	49257	6.29e5	6.12e5	inactive
27	CG3566	DRSC18311	3.12e5	3.37e5	2.44e6	1.71e6	inactive
28	CG3566	DRSC29311	5.38e5	4.30e5	1.02e6	9.06e5	inactive
29	SecCl	DRSC10887	1.94e5	1.42e5	2.29e6	8.46e5	inactive
30	PIG-H + Kmn2	DRSC12653	3.87e5	93245	14690	2.00e5	inactive
31	CG4053	DRSC15538	5.03e5	7.51e5	6.82e5	1.71e6	inactive
32	CG4053	DRSC29364	2.64e5	4.00e5	9.31e5	9.31e5	inactive
33	CG11200	DRSC06060	1.06e6	6.39e5	1.75e6	8.37e5	inactive
34	CG11200	DRSC27196	2.80e5	3.29e5	5.04e5	5.10e5	inactive
35	CG17633	DRSC02631	1.89e5	1.11e5	1.40e6	1.09e6	inactive
36	CG17633	DRSC29709	2.72e5	3.74e5	7.44e5	1.16e6	inactive
37	Pcl	DRSC07503	5.47e5	4.73e5	5.29e5	6.13e5	inactive
38	Pcl	DRSC24868	4.57e5	3.87e5	5.19e5	3.25e5	inactive
39	CG9406	DRSC04552	3.86e5	4.06e5	2.05e6	1.71e6	inactive

Not a retest: 3 of the entries above.
no.	target	dsRNA	firefly reporter light, replicate 1	firefly reporter light, replicate 2	Renilla control light, replicate 1	Renilla control light, replicate 2	Outcome
37	Pcl	DRSC07503	5.47e5	4.73e5	5.29e5	6.13e5	inactive
38	Pcl	DRSC24868	4.57e5	3.87e5	5.19e5	3.25e5	inactive
39	CG9406	DRSC04552	3.86e5	4.06e5	2.05e6	1.71e6	inactive

Continued:
no.	target	dsRNA	firefly reporter light, replicate 1	firefly reporter light, replicate 2	Renilla control light, replicate 1	Renilla control light, replicate 2	Outcome
40	CG10934	DRSC06017	1.57e6	1.24e6	2.69e6	1.77e6	inactive
41	pncr011:3L (retired record)	DRSC37775	5.35e5	5.98e5	1.12e6	1.08e6	inactive
42	pncr011:3L (retired record)	DRSC39123	8.07e5	7.49e5	1.96e6	1.26e6	inactive
43	CG34161	DRSC38918	1.33e6	1.17e6	2.10e6	1.55e6	inactive
44	CG31815	DRSC01548	1.77e5	1.27e5	5.33e5	4.06e5	inactive
45	CG31815	DRSC29263	4.89e5	4.21e5	1.16e6	1.36e6	inactive
46	cort	DRSC02148	2.94e5	3.42e5	2.23e6	3.14e6	inactive
47	cort	DRSC26829	2.67e5	3.52e5	5.19e5	4.55e5	inactive
48	Pdss2	DRSC11625	66763	49541	4.65e5	3.62e5	inactive
49	CG8468	DRSC07190	76718	1.12e5	1.48e6	1.48e6	inactive
50	CG8468	DRSC26347	3.78e5	3.28e5	6.72e5	7.02e5	inactive
51	tey	DRSC11042	3.94e5	4.12e5	2.22e6	2.17e6	inactive
52	tey	DRSC21709	6.40e5	6.73e5	1.89e6	1.27e6	inactive
53	tey	DRSC26114	3.30e5	3.44e5	8.61e5	5.60e5	inactive
54	CG5597	DRSC04517	6.10e5	4.91e5	1.32e6	1.14e6	inactive
55	Or67b	DRSC11241	2.94e5	2.63e5	3.14e6	2.02e6	inactive
56	VepD	DRSC22318	9.37e5	1.07e6	1.76e6	1.39e6	inactive
57	VepD	DRSC27653	4.96e5	3.85e5	8.09e5	9.26e5	inactive
58	CG17010	DRSC02559	1.05e6	1.16e6	2.71e6	2.98e6	inactive
59	CG17010	DRSC29558	8.10e5	4.77e5	1.20e6	1.20e6	inactive
60	CG17010	DRSC39292					inactive
